No constants are given. Whether binding was seen depends on the method and setting. In cells and extracts the contact can be indirect. Some binding calls cover weakened binding; strength is not graded here.
Tests used:
[1] = target: T1, Isl1 (mouse (endogenous in mouse ESC-derived CPCs and mouse embryos)) (UniProt P61372); experiment: co-IP; lysate of mouse ESC-derived cardiac progenitor cells (control and Baf60c knock-down); precipitated with anti-Isl1 antibody 39.4D5 and Protein G-Sepharose, 4 °C; western blot for Brg1 and Baf60c
T1 sequence: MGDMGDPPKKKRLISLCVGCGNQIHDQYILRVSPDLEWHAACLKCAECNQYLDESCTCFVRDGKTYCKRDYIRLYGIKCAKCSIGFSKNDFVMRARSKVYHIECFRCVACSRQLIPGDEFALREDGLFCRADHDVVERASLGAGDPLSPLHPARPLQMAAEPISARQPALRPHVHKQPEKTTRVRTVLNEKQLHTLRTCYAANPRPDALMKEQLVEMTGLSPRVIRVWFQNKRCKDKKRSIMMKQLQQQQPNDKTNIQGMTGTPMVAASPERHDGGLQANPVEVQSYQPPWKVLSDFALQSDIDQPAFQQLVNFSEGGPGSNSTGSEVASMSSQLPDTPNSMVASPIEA

By UniProt entry, the sequences of proteins in these tests, tags left out.
UniProt Q3TKT4: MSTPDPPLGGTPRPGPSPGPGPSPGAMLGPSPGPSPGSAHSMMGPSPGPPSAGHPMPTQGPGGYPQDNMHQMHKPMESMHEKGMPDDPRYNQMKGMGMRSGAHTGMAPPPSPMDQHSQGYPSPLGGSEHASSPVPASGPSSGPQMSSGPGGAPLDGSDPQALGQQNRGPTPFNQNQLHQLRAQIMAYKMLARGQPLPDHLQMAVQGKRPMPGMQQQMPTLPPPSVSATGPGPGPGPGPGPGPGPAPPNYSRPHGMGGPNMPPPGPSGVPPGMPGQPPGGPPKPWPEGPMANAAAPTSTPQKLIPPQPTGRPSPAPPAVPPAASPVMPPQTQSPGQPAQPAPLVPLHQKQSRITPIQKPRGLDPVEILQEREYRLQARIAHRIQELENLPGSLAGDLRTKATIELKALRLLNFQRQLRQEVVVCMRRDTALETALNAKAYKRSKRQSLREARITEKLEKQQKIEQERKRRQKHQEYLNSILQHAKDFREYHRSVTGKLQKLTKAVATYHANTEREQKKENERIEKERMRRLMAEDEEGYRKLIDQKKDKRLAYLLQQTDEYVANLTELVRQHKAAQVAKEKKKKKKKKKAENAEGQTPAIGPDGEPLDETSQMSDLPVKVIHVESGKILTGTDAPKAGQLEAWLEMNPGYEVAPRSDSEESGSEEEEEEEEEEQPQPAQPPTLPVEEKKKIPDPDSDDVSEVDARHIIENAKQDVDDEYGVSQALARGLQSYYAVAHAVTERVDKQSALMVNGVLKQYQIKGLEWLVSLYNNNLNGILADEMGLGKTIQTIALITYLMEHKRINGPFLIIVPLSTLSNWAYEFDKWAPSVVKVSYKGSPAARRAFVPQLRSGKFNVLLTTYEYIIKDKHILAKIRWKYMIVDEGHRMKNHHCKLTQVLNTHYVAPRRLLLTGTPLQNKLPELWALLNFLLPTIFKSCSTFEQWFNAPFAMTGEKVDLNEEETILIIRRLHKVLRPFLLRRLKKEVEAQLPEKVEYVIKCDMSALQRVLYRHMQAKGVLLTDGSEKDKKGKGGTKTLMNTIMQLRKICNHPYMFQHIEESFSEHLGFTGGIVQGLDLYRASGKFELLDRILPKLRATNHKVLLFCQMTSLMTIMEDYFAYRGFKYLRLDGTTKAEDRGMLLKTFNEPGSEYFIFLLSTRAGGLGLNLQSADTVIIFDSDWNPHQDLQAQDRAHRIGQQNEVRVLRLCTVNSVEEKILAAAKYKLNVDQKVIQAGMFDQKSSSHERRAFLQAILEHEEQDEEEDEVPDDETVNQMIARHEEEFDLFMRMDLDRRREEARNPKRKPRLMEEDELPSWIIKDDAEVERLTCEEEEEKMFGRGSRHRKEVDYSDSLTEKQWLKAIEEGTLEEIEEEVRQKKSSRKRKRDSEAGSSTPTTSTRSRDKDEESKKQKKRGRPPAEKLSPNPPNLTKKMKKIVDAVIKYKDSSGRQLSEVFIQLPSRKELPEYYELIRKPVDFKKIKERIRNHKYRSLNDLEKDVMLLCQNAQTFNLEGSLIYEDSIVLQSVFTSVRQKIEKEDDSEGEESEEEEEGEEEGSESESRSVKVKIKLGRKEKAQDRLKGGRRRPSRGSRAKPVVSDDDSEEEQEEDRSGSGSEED
UniProt Q6P9Z1: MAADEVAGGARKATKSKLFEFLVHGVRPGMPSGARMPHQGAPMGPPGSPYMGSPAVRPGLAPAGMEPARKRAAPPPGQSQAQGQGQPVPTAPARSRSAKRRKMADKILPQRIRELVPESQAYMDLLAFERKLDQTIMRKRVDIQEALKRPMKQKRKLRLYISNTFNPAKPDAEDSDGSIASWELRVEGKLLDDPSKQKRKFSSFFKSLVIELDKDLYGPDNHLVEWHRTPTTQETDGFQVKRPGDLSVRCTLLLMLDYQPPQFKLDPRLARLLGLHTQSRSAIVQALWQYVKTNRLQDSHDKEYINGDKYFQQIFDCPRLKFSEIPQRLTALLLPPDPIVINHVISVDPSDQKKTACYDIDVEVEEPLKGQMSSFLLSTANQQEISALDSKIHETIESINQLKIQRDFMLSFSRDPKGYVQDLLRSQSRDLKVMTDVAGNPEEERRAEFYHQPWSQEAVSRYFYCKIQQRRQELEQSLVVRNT

[2] = target: T1, Isl1 (mouse (endogenous in mouse ESC-derived CPCs and mouse embryos)); experiment: co-IP; lysate of 30 homogenised mouse embryos (E8.25-E9); lysis buffer 50 mM Tris pH 7.5, 10 mM EGTA, 100 mM NaCl, 0.1% Triton X-100; precipitated with anti-Isl1 antibody 39.4D5 and Protein G-Sepharose, 4 °C; western blot for Brg1

Brg1 (from UniProt Q3TKT4 1-1613) was tested, and the binding [1] was “binds” and the binding [2] was “binds”.

Baf60c (from UniProt Q6P9Z1 1-483) was tested, and the binding [1] was “binds”.

— PMC6796926, “Pioneering function of Isl1 in the epigenetic control of cardiomyocyte cell fate”
